Test results published in the supplement of paper PMC6078165.

System: Hs578T
Test: relative JC-1 red fluorescence (viability) vs pre-drug, coculture with fibroblast (fraction); higher = more viable cancer cells
Protocol: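 JC-1 labelled TNBC cells cocultured 1:1 (1,500 cells each) with CellTrace Violet stained primary or stromal fibroblasts in 384-well plates in FluoroBrite medium, treated with one of 42 anticancer drugs at 0.1, 1, 10 or 100 uM. JC-1 red fluorescence (mitochondrial integrity in cancer cells only) was read by plate reader every 8 h for 72 h. Values are normalised to each well's pre-drug value. The stock of one drug was tenfold lower, so its dose labels may be too high.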

C=C1C[C@@H]2[C@H](CC[C@]3(C)C(=O)CC[C@@H]23)[C@@]2(C)C=CC(=O)C=C12 [Exemestane]
relative JC-1 red fluorescence
Conditions | 8 h | 16 h | 24 h | 32 h | 40 h | 48 h | 56 h | 64 h | 72 h
0.1 µM | 0.871 | 0.772 | 0.7248 | 0.703 | 0.638 | 0.599 | 0.569 | 0.531 | 0.517
1 µM | 0.883 | 0.776 | 0.71 | 0.674 | 0.616 | 0.57 | 0.544 | 0.502 | 0.48

relative JC-1 red fluorescence
Conditions | 8 h | 16 h | 24 h | 32 h | 40 h | 48 h | 56 h | 64 h | 72 h
0.1 µM, coculture fibroblast: C12385 | 0.832 | 0.724 | 0.647 | 0.555 | 0.486 | 0.444 | 0.408 | 0.399 | 0.396
0.1 µM, coculture fibroblast: H6013 | 0.9072 | 0.807 | 0.778 | 0.773 | 0.756 | 0.76 | 0.75 | 0.745 | 0.712
0.1 µM, coculture fibroblast: H6019 | 0.793 | 0.702 | 0.688 | 0.598 | 0.561 | 0.543 | 0.507 | 0.49 | 0.468
0.1 µM, coculture fibroblast: H6076 | 0.917 | 0.812 | 0.784 | 0.772 | 0.727 | 0.7276 | 0.7072 | 0.7045 | 0.7073
0.1 µM, coculture fibroblast: H6231 | 0.916 | 0.828 | 0.723 | 0.674 | 0.605 | 0.582 | 0.53 | 0.51 | 0.49
0.1 µM, coculture fibroblast: HADF | 0.934 | 0.864 | 0.803 | 0.76 | 0.726 | 0.698 | 0.668 | 0.664 | 0.64
0.1 µM, coculture fibroblast: HCFa | 0.893 | 0.78 | 0.712 | 0.656 | 0.599 | 0.572 | 0.533 | 0.515 | 0.477
0.1 µM, coculture fibroblast: HCPF | 0.92473 | 0.836 | 0.799 | 0.776 | 0.722 | 0.699 | 0.67 | 0.633 | 0.611
0.1 µM, coculture fibroblast: HHSteC | 0.92 | 0.803 | 0.751 | 0.70852 | 0.659 | 0.632 | 0.604 | 0.582 | 0.54
0.1 µM, coculture fibroblast: HMF | 0.923 | 0.826 | 0.763 | 0.725 | 0.661 | 0.628 | 0.59 | 0.567 | 0.55
0.1 µM, coculture fibroblast: HPFa | 0.949 | 0.885 | 0.805 | 0.759 | 0.701 | 0.659 | 0.615 | 0.586 | 0.5264
0.1 µM, coculture fibroblast: HUF | 0.8568 | 0.766 | 0.7114 | 0.598 | 0.534 | 0.495 | 0.458 | 0.444 | 0.435
0.1 µM, coculture fibroblast: Hs27A | 0.887 | 0.824 | 0.744 | 0.685 | 0.63 | 0.612 | 0.57 | 0.556 | 0.507
0.1 µM, coculture fibroblast: Hs343T | 0.924 | 0.781 | 0.729 | 0.7087 | 0.636 | 0.597 | 0.554 | 0.53 | 0.519
0.1 µM, coculture fibroblast: WS1 | 0.84 | 0.706 | 0.647 | 0.547 | 0.477 | 0.444 | 0.406 | 0.402 | 0.4
1 µM, coculture fibroblast: C12385 | 0.835 | 0.697 | 0.711 | 0.628 | 0.5753 | 0.5492 | 0.525 | 0.53062 | 0.5354
1 µM, coculture fibroblast: H6013 | 0.865 | 0.7979 | 0.7619 | 0.725 | 0.681 | 0.667 | 0.641 | 0.631 | 0.601
1 µM, coculture fibroblast: H6019 | 0.823 | 0.7258 | 0.712 | 0.607 | 0.561 | 0.533 | 0.499 | 0.479 | 0.453
1 µM, coculture fibroblast: H6076 | 0.91 | 0.892 | 0.843 | 0.821 | 0.777 | 0.761 | 0.745 | 0.725 | 0.726
1 µM, coculture fibroblast: H6231 | 0.862 | 0.766 | 0.702 | 0.666 | 0.606 | 0.5793 | 0.5446 | 0.5214 | 0.515
1 µM, coculture fibroblast: HADF | 0.901 | 0.826 | 0.75 | 0.682 | 0.619 | 0.582 | 0.538 | 0.524 | 0.494
1 µM, coculture fibroblast: HCFa | 0.862 | 0.768 | 0.725 | 0.668 | 0.609 | 0.583 | 0.547 | 0.525 | 0.482
1 µM, coculture fibroblast: HCPF | 0.911 | 0.833 | 0.788 | 0.754 | 0.69 | 0.667 | 0.652 | 0.614 | 0.595
1 µM, coculture fibroblast: HHSteC | 0.916 | 0.838 | 0.791 | 0.748 | 0.706 | 0.673 | 0.646 | 0.622 | 0.579
1 µM, coculture fibroblast: HMF | 0.859 | 0.762 | 0.711 | 0.692 | 0.636 | 0.614 | 0.5863 | 0.57 | 0.567
1 µM, coculture fibroblast: HPFa | 0.951 | 0.869 | 0.789 | 0.713 | 0.649 | 0.606 | 0.553 | 0.522 | 0.467
1 µM, coculture fibroblast: HUF | 0.855 | 0.754 | 0.695 | 0.599 | 0.526 | 0.482 | 0.442 | 0.413 | 0.401
1 µM, coculture fibroblast: Hs27A | 0.876 | 0.819 | 0.79 | 0.764 | 0.716 | 0.702 | 0.672 | 0.668 | 0.616
1 µM, coculture fibroblast: Hs343T | 0.9284 | 0.821 | 0.763 | 0.721 | 0.642 | 0.603 | 0.567 | 0.5316 | 0.5229
1 µM, coculture fibroblast: WS1 | 0.823 | 0.706 | 0.649 | 0.551 | 0.5 | 0.475 | 0.444 | 0.439 | 0.438

Values are relative to the signal before dosing, not to a vehicle control; the signal also falls without drug.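 Labels refer to human fibroblasts, largely primary: uterine (C12385, HUF), lung (H6013), bone (Hs27A), adrenal (HADF), skin (WS1), plus mammary HMF and breast cancer-associated Hs343T. Cancer lines are basal-like or mesenchymal-like triple-negative breast cancer. The paper counts as hits responses shifting over 3x the replicate standard deviation. The tissue of the other fibroblasts is not given here.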
